Literature values as cited in US12473332B2, “Modified peptides and associated methods of use” (Advanced Technologies For Novel Therapeutics, LLC, priority 2019, dated 2025).

What was measured:
glioblastoma cells = conditions: literature; read-out: IC-50 on glioblastoma cells; cited from earlier work
Neuroblastoma cells = conditions: literature; read-out: IC-50 on neuroblastoma cells; cited from earlier work

## Cc1ccc(NC(=O)c2ccc(CN3CCN(C)CC3)cc2)cc1Nc1nccc(-c2cccnc2)n1 [Gleevec, Imatinib]
Glioblastoma cells
  IC50: 15.7 to 18.7 µM
Neuroblastoma cells
  IC50: 9 to 13 µM
